Measurements taken from patent US20250027035A1, “HEAVY METAL-ANTIBIOTIC MULTIPLE RESISTANT BACTERIA AND ITS APPLICATION” (priority 2023, published 2025).
At least one structure is not confirmed: it was looked up by name or label, or the drawing left a doubt. Some compounds share one wording; it may come from a single statement.

These molecules were tested on Rossellomorea oryzaecorticis ZC255 (assay: Drug sensitivity test of strains (antibiotic tolerance)).
Type: cell-based

Row | SMILES | drug sensitivity of the strain, result in words
1 | NC[C@H]1O[C@H](O[C@H]2[C@H](O)[C@@H](O[C@H]3O[C@H](CO)[C@@H](O)[C@H](N)[C@H]3O)[C@H](N)C[C@@H]2N)[C@H](O)[C@@H](O)[C@@H]1O [Kanamycin] | drug resistance
2 | CC1COc2c(N3CCN(C)CC3)c(F)cc3c(=O)c(C(=O)O)cn1c23 (stereo not drawn) [Ofloxacin] | drug resistance
3 | CN(C)[C@@H]1C(O)=C(C(N)=O)C(=O)[C@@]2(O)C(O)=C3C(=O)c4c(O)cccc4[C@@](C)(O)[C@H]3C[C@@H]12 [Tetracycline] | drug resistance
